Reference: PubChem BioAssay AID1508600 (Functional Genomics Laboratory (NCATS/FGL), 2020)
Screen size: about 53,000 sequences; about 3,700 (7%) were called active.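 The calls were made as follows: active = gene knockdowns whose robust z-score for IL-1 alpha signal is at least 2 or at most -2, so actives lie on both sides; inactive = the rest.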 Some of the results follow.

Experiment: Components of the Cytosolic LPS Sensing Pathway: Gene Identification via Genome-wide siRNA Screen
Conditions: RAW264.7 macrophages, IL-1a HTRF, actives lie on both sides, screened at 100 nM (by protocol), cells primed 5 h with Pam3CSK4 first
Text: Non-canonical inflammasome activation by cytosolic LPS is a critical component of the host response to Gram-negative bacterial infection, however we lack a comprehensive understanding of the cellular processes that control this pathway. Here we describe a genome-wide siRNA screen to identify genes regulating the mouse macrophage IL-1 alpha response to cytosolic LPS.
RAW264.7 cells were maintained in complete DMEM media, comprising DMEM with 4.5 g/L glucose, 10% FBS (Gemini Bio-Products, West Sacramento, CA), 2 mM Glutamine (Lonza) and 20 mM HEPES (Lonza), hereafter complete DMEM.
The RNAi screen was conducted in 384-well format using the Ambion Silencer Mouse Genome siRNA Library (#4391425), which consists of three unique, nonoverlapping, nonpooled siRNAs for each of 17,000 gene targets. siRNA reagents ([…]) were stamped into 384-well white flat-bottom microplates (Corning, 3570) using a Velocity11 VPrep liquid handling system (Agilent) integrated into a BioCel robotic platform (Agilent) in columns 1-22, leaving columns 23-24 empty for negative (Ambion, Negative control #1) and positive (mouse Casp4) controls, respectively. The median value of each plate's negative control column was used to normalize sample wells, and the positive control was used to assess transfection efficiency and assay performance.
Lipofectamine RNAiMAX Transfection Reagent ([…]; Invitrogen) was added in […] serum-free, antibiotic-free media to plate wells using a Thermo Scientific Matrix WellMate and Microplate Stacker. Plates were incubated for 45 min at room temperature to allow for the sufficient formation of siRNA-lipid complexes. Cells were seeded at a density of 1x10^4 cells per well in 20 microL media containing 20% (vol/vol) FBS without antibiotics. The final concentration of siRNA in each well was 100 nM. Cells were cultured for 48h at 37 degrees C in 5% CO2 before addition of […] of TLR ligand Pam3CSK4 for 5 hours. The medium was then removed, replaced with […] growth media and cell were transfected with […] of LipidA and TransIT-TKO (Mirus) for 24 hour. At the end of the LipidA treatment, […] of supernatant was transferred to a 384 Greiner Bio-one non-binding low volume plate and […] of IL-1a HTRF reagent (Cisbio, 62MIL1APEH) was added and incubated at room temperature overnight. The plates were read on an EnVision plate reader (PerkinElmer). Cell viability was measured by adding 20ul Cell Titer Glo to the original plate and running a luminescence read on the EnVision. The quantified IL-1a signal for each siRNA gene-targeted well was divided by the median of the negative control wells and multiplied by 100 to achieve a negative control normalized value for each well/siRNA. This normalized value was then used to generate a robust z-score by first taking the log of each value and then by subtracting the median and dividing by the […].

z-score, inactive:
GGGAGGUGUGGUAAACUGUTT against Dcaf8 -0.877
GGAGCAAUUUGAAGACUAUTT against Rab11fip4 -0.0904
GGAAAGCAAAAAAAACUGUTT against Tnfaip8 -1.68
GCUCGCAUUUCCAUAAUACTT against Taar2 -0.805
GCAAGACGCACUGUUACUGTT against Fam214a 0.196
GGCCUCCUCUCACAAGUAUTT against Tubb3 0.492
GGUGUCACGACAAACAUUCTT against Fam83h -1.6
GGAUCUUAUUAUUUGAUCCTT against Mettl15 -0.671
GCUCCCUACUUUACAUAAATT against Best3 -0.856
GCUGCCAAUACAAAUUGUCTT against Nlrp9a 0.428
GCCUGUAAUCCCAUCAUCUTT against Taar5 -0.932
GGCUCAACGGGAUUACUUUTT against Pgd -0.578
GCAGAUUCGCUGCCUGAUGTT against Snapc4 -0.917
GGAGCAGGUGUUGAAAGACTT against Gtf2a1l 1.55
CCAAGAUGCACAGUGAUAATT against Pknox2 -0.925
GGUUAGGCACAAAUAAGUUTT against B230206H07Rik 1.08
GGCUCUGAAUAAACUCCUCTT against Olfr1013 -1.22
CCCAGAAUUUGAGUUACUCTT against BC107364 0.383
GGGUGACUGGAAUGACAUCTT against Galnt2 -0.325
CCAACUAUGCCAUCAAUAATT against Ttll13 -0.318
CCUCCUGCCACAUUCUUUCTT against AU022252 0.91
CCAGUUACUAUGAGAAUGUTT against Yars 0.0674
GGUCAUGAUGGAAUGAGAATT against Niban2 -0.0357
GGCCUUCCUUUUCUAUAGATT against Foxd2 -0.000768
GUUUGGCUCACUGUGCUGGTT against Gjc2 -0.698
CCAUCUAUGGACCCGUAACTT against Ftdc2 1.92
CCGGAGUUGAAACCUAAAATT against Hmgn5 0.524
CCAAAUAGAGAGCCUAAAUTT against Loxl2 -0.173
CCAUAUUUUACCCAAAAGCTT against Prune1 -1.04

2 records picked at random from those above:
z-score, inactive:
CCAAGAUGCACAGUGAUAATT against Pknox2 -0.925
GCAAGACGCACUGUUACUGTT against Fam214a 0.196
